# Test results reported in the supplement of paper PMC10032668.
# By UniProt entry, the sequences of proteins in these tests, tags left out.
# APEX1, P27695, UniProt P27695, whole entry: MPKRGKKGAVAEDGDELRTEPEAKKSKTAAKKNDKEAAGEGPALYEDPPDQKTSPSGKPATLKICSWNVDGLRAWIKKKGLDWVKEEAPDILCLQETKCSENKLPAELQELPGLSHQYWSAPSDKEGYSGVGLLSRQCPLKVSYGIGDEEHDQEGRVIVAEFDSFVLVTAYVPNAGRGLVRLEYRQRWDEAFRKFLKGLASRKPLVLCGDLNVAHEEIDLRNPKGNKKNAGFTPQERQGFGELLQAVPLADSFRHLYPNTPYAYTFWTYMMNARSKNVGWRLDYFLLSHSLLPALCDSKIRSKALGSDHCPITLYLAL
# CHMP2B, Q9UQN3, UniProt Q9UQN3, whole entry: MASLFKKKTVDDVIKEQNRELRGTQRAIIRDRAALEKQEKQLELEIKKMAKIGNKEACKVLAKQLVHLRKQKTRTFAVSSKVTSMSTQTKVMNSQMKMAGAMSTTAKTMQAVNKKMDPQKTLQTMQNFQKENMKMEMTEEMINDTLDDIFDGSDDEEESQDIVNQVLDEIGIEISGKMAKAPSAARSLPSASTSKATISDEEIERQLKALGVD
# CKS2, P33552, UniProt P33552, whole entry: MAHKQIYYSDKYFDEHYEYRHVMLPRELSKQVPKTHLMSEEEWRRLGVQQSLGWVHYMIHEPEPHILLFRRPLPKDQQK
# EIF1, P41567, UniProt P41567, whole entry: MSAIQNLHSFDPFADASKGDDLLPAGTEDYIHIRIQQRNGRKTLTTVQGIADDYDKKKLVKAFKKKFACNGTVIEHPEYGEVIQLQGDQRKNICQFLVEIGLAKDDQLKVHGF
# EIF4E, P06730, UniProt P06730, whole entry: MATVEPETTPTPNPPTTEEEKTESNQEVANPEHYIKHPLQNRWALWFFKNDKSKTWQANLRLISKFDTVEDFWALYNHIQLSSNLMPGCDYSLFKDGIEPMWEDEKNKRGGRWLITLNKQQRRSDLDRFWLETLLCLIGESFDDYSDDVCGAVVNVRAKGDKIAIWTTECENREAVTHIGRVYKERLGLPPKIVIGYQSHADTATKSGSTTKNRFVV
# HBS1L, Q9Y450, UniProt Q9Y450, whole entry: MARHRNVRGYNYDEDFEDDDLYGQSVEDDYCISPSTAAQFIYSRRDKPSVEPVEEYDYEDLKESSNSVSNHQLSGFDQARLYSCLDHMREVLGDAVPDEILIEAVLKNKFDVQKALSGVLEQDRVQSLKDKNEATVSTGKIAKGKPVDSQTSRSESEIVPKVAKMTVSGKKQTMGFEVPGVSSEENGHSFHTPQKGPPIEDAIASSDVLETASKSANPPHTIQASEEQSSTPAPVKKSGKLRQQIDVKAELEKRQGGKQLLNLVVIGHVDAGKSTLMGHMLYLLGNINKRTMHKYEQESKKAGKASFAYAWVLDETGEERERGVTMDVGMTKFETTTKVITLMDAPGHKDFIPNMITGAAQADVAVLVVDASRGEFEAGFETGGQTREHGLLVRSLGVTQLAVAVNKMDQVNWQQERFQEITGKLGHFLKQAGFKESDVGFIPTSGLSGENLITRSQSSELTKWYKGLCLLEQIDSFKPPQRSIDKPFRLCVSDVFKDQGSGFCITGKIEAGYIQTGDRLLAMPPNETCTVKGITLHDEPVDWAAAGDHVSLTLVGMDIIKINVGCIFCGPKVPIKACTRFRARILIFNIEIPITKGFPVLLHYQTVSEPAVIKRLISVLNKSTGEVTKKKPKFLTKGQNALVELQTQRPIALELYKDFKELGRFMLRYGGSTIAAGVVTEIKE
# HIST1H1E, P10412, UniProt P10412, whole entry: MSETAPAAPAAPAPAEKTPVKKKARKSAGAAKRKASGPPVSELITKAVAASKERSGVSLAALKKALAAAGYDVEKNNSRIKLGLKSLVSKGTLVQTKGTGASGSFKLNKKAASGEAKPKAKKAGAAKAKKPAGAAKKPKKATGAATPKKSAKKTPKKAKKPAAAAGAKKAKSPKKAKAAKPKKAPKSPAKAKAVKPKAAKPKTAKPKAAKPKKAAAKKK
# KHDRBS1, Q07666, UniProt Q07666, whole entry: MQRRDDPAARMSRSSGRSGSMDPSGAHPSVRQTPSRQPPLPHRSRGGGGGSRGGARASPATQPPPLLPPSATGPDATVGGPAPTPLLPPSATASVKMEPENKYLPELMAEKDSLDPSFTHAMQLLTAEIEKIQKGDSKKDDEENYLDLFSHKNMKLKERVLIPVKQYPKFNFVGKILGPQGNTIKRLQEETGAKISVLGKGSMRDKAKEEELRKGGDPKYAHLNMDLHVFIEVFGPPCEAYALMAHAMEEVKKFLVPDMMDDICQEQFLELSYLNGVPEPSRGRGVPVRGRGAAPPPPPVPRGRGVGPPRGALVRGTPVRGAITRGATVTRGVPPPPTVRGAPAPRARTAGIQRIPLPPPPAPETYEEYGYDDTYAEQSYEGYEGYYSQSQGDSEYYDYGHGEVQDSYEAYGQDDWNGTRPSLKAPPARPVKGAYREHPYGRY
# MORF4L2, Q15014, UniProt Q15014, whole entry: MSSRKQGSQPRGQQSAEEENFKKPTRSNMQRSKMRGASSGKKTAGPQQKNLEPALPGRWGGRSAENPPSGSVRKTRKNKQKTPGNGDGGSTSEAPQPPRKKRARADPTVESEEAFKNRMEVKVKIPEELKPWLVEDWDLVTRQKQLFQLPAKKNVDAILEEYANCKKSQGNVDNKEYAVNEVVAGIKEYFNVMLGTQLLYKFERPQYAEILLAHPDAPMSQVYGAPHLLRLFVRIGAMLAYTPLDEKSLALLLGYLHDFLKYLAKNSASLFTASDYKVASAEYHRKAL
# PIN1, Q13526, UniProt Q13526, whole entry: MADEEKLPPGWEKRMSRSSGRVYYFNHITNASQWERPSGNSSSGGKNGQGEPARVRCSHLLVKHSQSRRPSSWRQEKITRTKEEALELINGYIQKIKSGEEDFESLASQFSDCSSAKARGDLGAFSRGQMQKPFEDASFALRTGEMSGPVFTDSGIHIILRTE
# TUBGCP3, Q96CW5, UniProt Q96CW5, whole entry: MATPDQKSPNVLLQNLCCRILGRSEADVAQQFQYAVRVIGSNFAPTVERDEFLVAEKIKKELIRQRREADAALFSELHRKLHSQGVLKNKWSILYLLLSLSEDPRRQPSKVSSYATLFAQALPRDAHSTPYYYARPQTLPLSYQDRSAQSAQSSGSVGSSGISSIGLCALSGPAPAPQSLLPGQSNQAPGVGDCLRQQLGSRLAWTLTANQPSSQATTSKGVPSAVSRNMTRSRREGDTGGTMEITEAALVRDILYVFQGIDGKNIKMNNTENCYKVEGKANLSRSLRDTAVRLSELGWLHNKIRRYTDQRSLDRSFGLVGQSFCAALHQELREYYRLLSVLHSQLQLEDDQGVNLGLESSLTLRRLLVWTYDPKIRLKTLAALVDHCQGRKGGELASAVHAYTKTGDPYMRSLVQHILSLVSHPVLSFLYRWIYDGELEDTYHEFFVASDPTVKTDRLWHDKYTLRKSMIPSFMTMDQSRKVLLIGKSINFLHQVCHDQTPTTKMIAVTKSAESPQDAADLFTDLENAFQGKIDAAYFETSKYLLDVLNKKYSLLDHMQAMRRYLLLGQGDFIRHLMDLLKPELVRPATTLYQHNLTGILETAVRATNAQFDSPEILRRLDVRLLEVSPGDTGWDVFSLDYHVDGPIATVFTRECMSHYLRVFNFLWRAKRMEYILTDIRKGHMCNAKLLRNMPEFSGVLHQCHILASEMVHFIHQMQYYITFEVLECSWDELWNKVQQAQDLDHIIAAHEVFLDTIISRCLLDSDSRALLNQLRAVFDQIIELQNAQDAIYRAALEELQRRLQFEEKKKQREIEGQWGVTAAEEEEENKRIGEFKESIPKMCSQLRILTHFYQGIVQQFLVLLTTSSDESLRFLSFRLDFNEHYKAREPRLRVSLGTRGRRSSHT
# UBE2I, P63279, UniProt P63279, whole entry: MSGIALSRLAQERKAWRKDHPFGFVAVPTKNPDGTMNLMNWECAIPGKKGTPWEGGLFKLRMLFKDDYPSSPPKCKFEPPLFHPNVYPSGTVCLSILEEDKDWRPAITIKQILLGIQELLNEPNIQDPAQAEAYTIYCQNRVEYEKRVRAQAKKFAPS
# UFM1, P61960, UniProt P61960, whole entry: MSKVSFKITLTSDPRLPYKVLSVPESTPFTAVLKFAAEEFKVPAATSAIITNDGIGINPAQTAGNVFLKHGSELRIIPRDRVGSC
# YBX3, P16989, UniProt P16989, whole entry: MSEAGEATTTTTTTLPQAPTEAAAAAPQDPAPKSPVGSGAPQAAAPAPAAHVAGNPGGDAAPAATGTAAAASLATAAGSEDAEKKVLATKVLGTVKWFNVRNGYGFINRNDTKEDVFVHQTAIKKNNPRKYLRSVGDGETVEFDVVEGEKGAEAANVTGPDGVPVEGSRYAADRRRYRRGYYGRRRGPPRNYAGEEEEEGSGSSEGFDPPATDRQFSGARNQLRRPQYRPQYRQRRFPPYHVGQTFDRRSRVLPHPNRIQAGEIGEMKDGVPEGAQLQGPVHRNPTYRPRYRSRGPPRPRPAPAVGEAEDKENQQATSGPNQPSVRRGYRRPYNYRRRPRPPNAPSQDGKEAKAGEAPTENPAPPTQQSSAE
# ± gives the standard deviation of the averaged measurements. This is one part of the list. The list holds hits alone, and they repeat only in part.
# Legend:
# Test in all cases: PRISMA enrichment of interactor (LFQ) in peptide spot vs all other peptide spots (log2 fold change); higher = stronger / more specific binding of the interactor to the peptide
# ACAT1, P24752 = target: ACAT1, P24752
# Method: (§1)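 PRISMA: 15-aa overlapping tiles (offset 8 aa) of 60 microproteins, plus SOS1/GLUT1 control peptides, were spot-synthesized on cellulose membranes in triplicate. Membranes were incubated with benzonase-treated HEK293T lysate, and bound proteins were identified by LC-MS/MS with LFQ. Enrichment is the log2 fold change of each protein in one spot versus all other spots. Only interactors passing the significance cutoff are listed.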
# ALYREF, Q86V81 = target: ALYREF, Q86V81
# Method: as §1
# APEX1, P27695 = target: APEX1, P27695
# Method: as §1
# BOLA3, Q53S33 = target: BOLA3, Q53S33
# Method: as §1
# C19orf53, Q9UNZ5 = target: C19orf53, Q9UNZ5
# Method: as §1
# CDCA5, Q96FF9 = target: CDCA5, Q96FF9
# Method: as §1
# CHMP2B, Q9UQN3 = target: CHMP2B, Q9UQN3
# Method: as §1
# CHTOP, Q9Y3Y2 = target: CHTOP, Q9Y3Y2
# Method: as §1
# CIRBP, Q14011 = target: CIRBP, Q14011
# Method: as §1
# CKS2, P33552 = target: CKS2, P33552
# Method: as §1
# CLTA, P09496 = target: CLTA, P09496
# Method: as §1
# COA7, Q96BR5 = target: COA7, Q96BR5
# Method: as §1
# CSNK1A1, P48729 = target: CSNK1A1, P48729
# Method: as §1
# CSRP2, Q16527 = target: CSRP2, Q16527
# Method: as §1
# CXorf56, Q9H5V9 = target: CXorf56, Q9H5V9
# Method: as §1
# DECR1, Q16698 = target: DECR1, Q16698
# Method: as §1
# DERPC, P0CG12 = target: DERPC, P0CG12
# Method: as §1
# DNAJC8, O75937 = target: DNAJC8, O75937
# Method: as §1
# EDF1, O60869 = target: EDF1, O60869
# Method: as §1
# EIF1, P41567 = target: EIF1, P41567
# Method: as §1
# EIF4E, P06730 = target: EIF4E, P06730
# Method: as §1
# EIF4H, Q15056 = target: EIF4H, Q15056
# Method: as §1
# EMG1, Q92979 = target: EMG1, Q92979
# Method: as §1
# EWSR1, Q01844 = target: EWSR1, Q01844
# Method: as §1
# FAM98B, Q52LJ0 = target: FAM98B, Q52LJ0
# Method: as §1
# FBXO5, Q9UKT4 = target: FBXO5, Q9UKT4
# Method: as §1
# FKBP2, P26885 = target: FKBP2, P26885
# Method: as §1
# FUS, P35637 = target: FUS, P35637
# Method: as §1
# G3BP2, Q9UN86 = target: G3BP2, Q9UN86
# Method: as §1
# GABARAPL2, P60520 = target: GABARAPL2, P60520
# Method: as §1
# GIPC1, O14908 = target: GIPC1, O14908
# Method: as §1
# HBS1L, Q9Y450 = target: HBS1L, Q9Y450
# Method: as §1
# HIST1H1E, P10412 = target: HIST1H1E, P10412
# Method: as §1
# HMGB1, P09429 = target: HMGB1, P09429
# Method: as §1
# HMGB2, P26583 = target: HMGB2, P26583
# Method: as §1
# HNRNPA0, Q13151 = target: HNRNPA0, Q13151
# Method: as §1
# HNRNPA1, P09651 = target: HNRNPA1, P09651
# Method: as §1
# HNRNPA2B1, P22626 = target: HNRNPA2B1, P22626
# Method: as §1
# HNRNPA3, P51991 = target: HNRNPA3, P51991
# Method: as §1
# KHDRBS1, Q07666 = target: KHDRBS1, Q07666
# Method: as §1
# LSM12, Q3MHD2 = target: LSM12, Q3MHD2
# Method: as §1
# MAZ, P56270 = target: MAZ, P56270
# Method: as §1
# MORF4L2, Q15014 = target: MORF4L2, Q15014
# Method: as §1
# MUC19, Q7Z5P9 = target: MUC19, Q7Z5P9
# Method: as §1
# NFX1, Q12986 = target: NFX1, Q12986
# Method: as §1
# NIFK, Q9BYG3 = target: NIFK, Q9BYG3
# Method: as §1
# NOL12, Q9UGY1 = target: NOL12, Q9UGY1
# Method: as §1
# NOL7, Q9UMY1 = target: NOL7, Q9UMY1
# Method: as §1
# [1] = substrate: NONO, Q15233
# Method: as §1
# [2] = substrate: NOSIP, Q9Y314
# Method: as §1
# PCLAF, Q15004 = target: PCLAF, Q15004
# Method: as §1
# [3] = substrate: PCNP, Q8WW12
# Method: as §1
# PIN1, Q13526 = target: PIN1, Q13526
# Method: as §1
# [4] = substrate: PPIF, P30405
# Method: as §1
# PSPC1, Q8WXF1 = target: PSPC1, Q8WXF1
# Method: as §1
# PTBP1, P26599 = target: PTBP1, P26599
# Method: as §1
# PYCR1, P32322 = target: PYCR1, P32322
# Method: as §1
# PYCR2, Q96C36 = target: PYCR2, Q96C36
# Method: as §1
# RBIS, Q8N0T1 = target: RBIS, Q8N0T1
# Method: as §1
# RBM3, P98179 = target: RBM3, P98179
# Method: as §1
# RBMX, P38159 = target: RBMX, P38159
# Method: as §1
# RBMXL1, Q96E39 = target: RBMXL1, Q96E39
# Method: as §1
# RPGRIP1L, Q68CZ1 = target: RPGRIP1L, Q68CZ1
# Method: as §1
# SERF2, P84101 = target: SERF2, P84101
# Method: as §1
# SFPQ, P23246 = target: SFPQ, P23246
# Method: as §1
# SLC9A3R2, Q15599 = target: SLC9A3R2, Q15599
# Method: as §1
# SMNDC1, O75940 = target: SMNDC1, O75940
# Method: as §1
# STMN2, Q93045 = target: STMN2, Q93045
# Method: as §1
# TMA16, Q96EY4 = target: TMA16, Q96EY4
# Method: as §1
# TUBGCP3, Q96CW5 = target: TUBGCP3, Q96CW5
# Method: as §1
# UBE2I, P63279 = target: UBE2I, P63279
# Method: as §1
# UBE2M, P61081 = target: UBE2M, P61081
# Method: as §1
# UFM1, P61960 = target: UFM1, P61960
# Method: as §1
# UTP23, Q9BRU9 = target: UTP23, Q9BRU9
# Method: as §1
# YBX3, P16989 = target: YBX3, P16989
# Method: as §1
# ZMAT2, Q96NC0 = target: ZMAT2, Q96NC0
# Method: as §1
# ZNF593, O00488 = target: ZNF593, O00488
# Method: as §1
# hCG_2014768 = target: hCG_2014768
# Method: as §1
binder,measurement,setting,value
VWEMTGFFLPDVLLS [NAV2-AS2_2],PRISMA enrichment of interactor (log2),"ACAT1, P24752",5.56
same,PRISMA enrichment of interactor (log2),"ALYREF, Q86V81",7.4 ± 1.3
same,PRISMA enrichment of interactor (log2),"APEX1, P27695",4.1
same,PRISMA enrichment of interactor (log2),"BOLA3, Q53S33",4.28
same,PRISMA enrichment of interactor (log2),"C19orf53, Q9UNZ5",7.5
same,PRISMA enrichment of interactor (log2),"CDCA5, Q96FF9",4.54
same,PRISMA enrichment of interactor (log2),"CHMP2B, Q9UQN3",4.12
same,PRISMA enrichment of interactor (log2),"CHTOP, Q9Y3Y2",6.83
same,PRISMA enrichment of interactor (log2),"CIRBP, Q14011",6.31
same,PRISMA enrichment of interactor (log2),"CKS2, P33552",6.22
same,PRISMA enrichment of interactor (log2),"CLTA, P09496",4.9
same,PRISMA enrichment of interactor (log2),"COA7, Q96BR5",4.94
same,PRISMA enrichment of interactor (log2),"CSNK1A1, P48729",5.11
same,PRISMA enrichment of interactor (log2),"CSRP2, Q16527",6.59
same,PRISMA enrichment of interactor (log2),"CXorf56, Q9H5V9",5.75
same,PRISMA enrichment of interactor (log2),"DECR1, Q16698",5.02
same,PRISMA enrichment of interactor (log2),"DERPC, P0CG12",4.25
same,PRISMA enrichment of interactor (log2),"DNAJC8, O75937",5.25
same,PRISMA enrichment of interactor (log2),"EDF1, O60869",4.81
same,PRISMA enrichment of interactor (log2),"EIF1, P41567",4.55
same,PRISMA enrichment of interactor (log2),"EIF4E, P06730",5.36
same,PRISMA enrichment of interactor (log2),"EIF4H, Q15056",5.71
same,PRISMA enrichment of interactor (log2),"EMG1, Q92979",5.62
same,PRISMA enrichment of interactor (log2),"EWSR1, Q01844",6.8
same,PRISMA enrichment of interactor (log2),"FAM98B, Q52LJ0",5.13
same,PRISMA enrichment of interactor (log2),"FBXO5, Q9UKT4",5.94
same,PRISMA enrichment of interactor (log2),"FKBP2, P26885",4.72
same,PRISMA enrichment of interactor (log2),"FUS, P35637",6.74
same,PRISMA enrichment of interactor (log2),"G3BP2, Q9UN86",6.34
same,PRISMA enrichment of interactor (log2),"GABARAPL2, P60520",5.63
same,PRISMA enrichment of interactor (log2),"GIPC1, O14908",3.99
same,PRISMA enrichment of interactor (log2),"HBS1L, Q9Y450",3.98
same,PRISMA enrichment of interactor (log2),"HIST1H1E, P10412",5.43
same,PRISMA enrichment of interactor (log2),"HMGB1, P09429",6.82
same,PRISMA enrichment of interactor (log2),"HMGB2, P26583",4.15
same,PRISMA enrichment of interactor (log2),"HNRNPA0, Q13151",6.16
same,PRISMA enrichment of interactor (log2),"HNRNPA1, P09651",7.43
same,PRISMA enrichment of interactor (log2),"HNRNPA2B1, P22626",5.46
same,PRISMA enrichment of interactor (log2),"HNRNPA3, P51991",5.55
same,PRISMA enrichment of interactor (log2),"KHDRBS1, Q07666",6.93
same,PRISMA enrichment of interactor (log2),"LSM12, Q3MHD2",5.46
same,PRISMA enrichment of interactor (log2),"MAZ, P56270",4.8
same,PRISMA enrichment of interactor (log2),"MORF4L2, Q15014",5.51
same,PRISMA enrichment of interactor (log2),"MUC19, Q7Z5P9",6.94
same,PRISMA enrichment of interactor (log2),"NFX1, Q12986",4.27
same,PRISMA enrichment of interactor (log2),"NIFK, Q9BYG3",4.45
same,PRISMA enrichment of interactor (log2),"NOL12, Q9UGY1",4.57
same,PRISMA enrichment of interactor (log2),"NOL7, Q9UMY1",4.4
same,PRISMA enrichment of interactor (log2),[1],5.38
same,PRISMA enrichment of interactor (log2),[2],4.32
same,PRISMA enrichment of interactor (log2),"PCLAF, Q15004",4.97
same,PRISMA enrichment of interactor (log2),[3],3.9
same,PRISMA enrichment of interactor (log2),"PIN1, Q13526",5.47
same,PRISMA enrichment of interactor (log2),[4],4.49
same,PRISMA enrichment of interactor (log2),"PSPC1, Q8WXF1",4.9
same,PRISMA enrichment of interactor (log2),"PTBP1, P26599",4.93
same,PRISMA enrichment of interactor (log2),"PYCR1, P32322",5.13
same,PRISMA enrichment of interactor (log2),"PYCR2, Q96C36",4.59
same,PRISMA enrichment of interactor (log2),"RBIS, Q8N0T1",4.9
same,PRISMA enrichment of interactor (log2),"RBM3, P98179",5.56
same,PRISMA enrichment of interactor (log2),"RBMX, P38159",4.9
same,PRISMA enrichment of interactor (log2),"RBMXL1, Q96E39",3.87
same,PRISMA enrichment of interactor (log2),"RPGRIP1L, Q68CZ1",3.82
same,PRISMA enrichment of interactor (log2),"SERF2, P84101",6.83
same,PRISMA enrichment of interactor (log2),"SFPQ, P23246",5.44
same,PRISMA enrichment of interactor (log2),"SLC9A3R2, Q15599",4.68
same,PRISMA enrichment of interactor (log2),"SMNDC1, O75940",4.58
same,PRISMA enrichment of interactor (log2),"STMN2, Q93045",4.26
same,PRISMA enrichment of interactor (log2),"TMA16, Q96EY4",4.41
same,PRISMA enrichment of interactor (log2),"TUBGCP3, Q96CW5",4.09
same,PRISMA enrichment of interactor (log2),"UBE2I, P63279",4.04
same,PRISMA enrichment of interactor (log2),"UBE2M, P61081",4.24
same,PRISMA enrichment of interactor (log2),"UFM1, P61960",4.15
same,PRISMA enrichment of interactor (log2),"UTP23, Q9BRU9",4.88
same,PRISMA enrichment of interactor (log2),"YBX3, P16989",4.28
same,PRISMA enrichment of interactor (log2),"ZMAT2, Q96NC0",3.93
same,PRISMA enrichment of interactor (log2),"ZNF593, O00488",4.89
same,PRISMA enrichment of interactor (log2),hCG_2014768,4.72

# An excerpt of these results, as tab-separated lines:
binder	measurement	setting	value
VWEMTGFFLPDVLLS [NAV2-AS2_2]	PRISMA enrichment of interactor (log2)	MAZ, P56270	4.8
same	PRISMA enrichment of interactor (log2)	RBM3, P98179	5.56

# 2 entries from above, tab-delimited.
binder	measurement	setting	value
VWEMTGFFLPDVLLS [NAV2-AS2_2]	PRISMA enrichment of interactor (log2)	EWSR1, Q01844	6.8
same	PRISMA enrichment of interactor (log2)	FAM98B, Q52LJ0	5.13
